PubChem BioAssay AID652259 – Drosophila RNAi Screening Center – 2013

Screen: 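Knock-downs that push a Wingless-driven reporter up or down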 (primary screen)
Cell system: Drosophila clone 8 imaginal disc epithelial cells
Reagent: long dsRNA against Drosophila genes
Treatment: pathway stimulated by co-transfected Wingless expression plasmid
Measurement: 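Dual luciferase reads per well after Wingless plasmid stimulation: reporter firefly light and Renilla control light; activity is firefly divided by Renilla, a ratio not deposited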
Reading the numbers: firefly reporter light: higher = more Wg reporter light, before normalisation; Renilla control light: higher = more transfected or surviving cells
Call rule: 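Strong candidates differ from their plate mean by at least two out of four per-plate statistical tests; weak candidates meet just one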
Meaning of the calls: active = candidate regulator (raises or lowers reporter); inactive = not a candidate
In all, the deposit lists about 22,000 reagents; shown is a random part of those that have a named target and a result. Over the whole deposit, 233 (1.1%) were called active. 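Light values are raw, unnormalised plate reads; the ratio scores behind the reporter calls were not deposited.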 A number with no mark means an inactive call. Reagents against one gene are numbered here. No sequences are given here. The record does not give: the amount of reagent, the time to read-out, the dose of the treatment.

brun
- firefly reporter light, replicate 1: 8282
- Renilla control light, replicate 1: 3872

CG30103
- firefly reporter light, replicate 1: 5317
- Renilla control light, replicate 1: 2054

CG1703
- firefly reporter light, replicate 1: 1976
- firefly reporter light, replicate 2: 4582
- Renilla control light, replicate 1: 762
- Renilla control light, replicate 2: 1888

Pglym78
- firefly reporter light, replicate 1: 3273
- firefly reporter light, replicate 2: 5884
- Renilla control light, replicate 1: 1344
- Renilla control light, replicate 2: 2352

snRNP-U1-C
- firefly reporter light, replicate 1: 23829
- Renilla control light, replicate 1: 3483

CenB1A
- firefly reporter light, replicate 1: 27223
- firefly reporter light, replicate 2: 7.49e5
- Renilla control light, replicate 1: 26547
- Renilla control light, replicate 2: 3.52e5

CG4956
- firefly reporter light, replicate 1: 15514
- Renilla control light, replicate 1: 16205

Pvr
- reporter change call, replicate 1: Wg reporter activity raised (active)
- firefly reporter light, replicate 1: 18944
- Renilla control light, replicate 1: 2856

gd
- firefly reporter light, replicate 1: 16744
- Renilla control light, replicate 1: 9227

gcl
- firefly reporter light, replicate 1: 6676
- Renilla control light, replicate 1: 2236

Tak1 #1
- firefly reporter light, replicate 1: 3856
- Renilla control light, replicate 1: 1421

Tak1 #2
- firefly reporter light, replicate 1: 22154
- Renilla control light, replicate 1: 9348

Tak1 #3
- firefly reporter light, replicate 1: 32193
- Renilla control light, replicate 1: 15897

CG4570
- firefly reporter light, replicate 1: 15706
- Renilla control light, replicate 1: 2125

CG31055
- firefly reporter light, replicate 1: 4123
- Renilla control light, replicate 1: 1914

Rtc1
- firefly reporter light, replicate 1: 1985
- firefly reporter light, replicate 2: 4850
- Renilla control light, replicate 1: 940
- Renilla control light, replicate 2: 2218

cal1
- firefly reporter light, replicate 1: 3845
- firefly reporter light, replicate 2: 7127
- Renilla control light, replicate 1: 1451
- Renilla control light, replicate 2: 2262

Records listed so far whose target name starts with C or c (7):
CG30103
- firefly reporter light, replicate 1: 5317
- Renilla control light, replicate 1: 2054

CG1703
- firefly reporter light, replicate 1: 1976
- firefly reporter light, replicate 2: 4582
- Renilla control light, replicate 1: 762
- Renilla control light, replicate 2: 1888

CenB1A
- firefly reporter light, replicate 1: 27223
- firefly reporter light, replicate 2: 7.49e5
- Renilla control light, replicate 1: 26547
- Renilla control light, replicate 2: 3.52e5

CG4956
- firefly reporter light, replicate 1: 15514
- Renilla control light, replicate 1: 16205

CG4570
- firefly reporter light, replicate 1: 15706
- Renilla control light, replicate 1: 2125

CG31055
- firefly reporter light, replicate 1: 4123
- Renilla control light, replicate 1: 1914

cal1
- firefly reporter light, replicate 1: 3845
- firefly reporter light, replicate 2: 7127
- Renilla control light, replicate 1: 1451
- Renilla control light, replicate 2: 2262
